System: mitochondria or chloroplast of Chlamydomonas reinhardtii
Experiment: Subcellular localization of Venus reporter by epifluorescence microscopy (manual targeting assignment)
Assay type: cell-based
Settings: Type HA-RAMP; set to which the native HA-RAMP is assigned (mt-set or cp-set)
Text: In a bid to keep peptidase recognition sites intact, C-terminal elements were designed to start 10 residues upstream of the cleavage site, even though this slightly truncates TP helices. Peptides carrying the 15-amino-acid cTP N-terminus (cTP-N) will be denoted ^cP. Similarly, peptides with C-terminal elements from RCA1-cTP (cTP-C) or CAG2-mTP (mTP-C) will be denoted P^c or P^m, respectively. Peptide variants are used to drive the subcellular localization of a Venus fluorescent reporter protein, which was assessed using fluorescence microscopy; in Figure 2, an executive overview of observed Venus localization is presented for all constructs. […] Here, we use automated image segmentation to validate our subcellular localization assessment (Supplemental Figure 2, Supplemental text). […] The reader will be asked to return to Figure 2 throughout, with Figures 3 and 4 providing selected micrographs as examples highlighting particular points of interest.
Chlamydomonas TP sequences were amplified from genomic DNA extracted from strain T222+ (CC-5101). Templates for codon-optimized HA-RAMP, RP, and R→K modified TP sequences were obtained by gene synthesis (Eurofins Genomics). Correct assembly was verified by sequencing (Eurofins Genomics). Linear transformation cassettes were generated through restriction digestion with EcoRV (New England Biolabs).
Constructs were transformed into wild-type strain T222+ (CC-5101) using a protocol described previously ([Onishi and Pringle, 2016]), except using 4 μl of DNA at 2 μg/μl.
Strains with suspected mitochondrial targeting were treated with 0.1 μM MitoTracker Red CMXRos (Thermo Fisher Scientific) in growth medium for 30 min in the dark and washed with TAP prior to taking images.
Legend for Fig. S3 – S20. Three independent transformant lines (Strains 1-3) are shown for each combination of modifications (A-L), represented by a cartoon and a shorthand description (cf. Fig.
2). Where a construct was interpreted as generating reporter localization in mitochondria or […]
Epifluorescence microscopy images of typical cells for each strain are shown. MitoTracker fluorescence, false-coloured in cyan, indicates the position of mitochondria (although parts of the cell exterior are sometimes also stained). False-coloured yellow fluorescence from the Venus channel reports on the subcellular localization of the fluorescent reporter. Chlorophyll autofluorescence, shown in magenta, indicates the location of the chloroplast. Scale bars are 5µm. Brightness (Br.) was adjusted for clarity: fluorescence intensity values were restricted to the range shown for each channel by matching coloured rectangles. Intensity scales to 0 at the bottom of the panel, and to 65535 at the top.
On the right-hand side, quantitative information associated with each construct is shown. Data was normalized such that averages range from 0 to 1 across all constructs (cf. Fig S2). Individual cell measurements may exceed this range; for clarity, the range shown here is limited to -0.5 to 1.5, with outliers that have more extreme values shown as lying beyond a dashed line. Strain 1 is plotted as circles, strain 2 as squares, and strain 3 as diamonds. Venus: Fluorescence plate reader data of transformants screened for this construct (Venus fluorescence, accounting for cell density using linear regression of OD750 and chlorophyll fluorescence trained on ‘no venus’ control transformants). Transformants that were not selected after screening are shown as small grey circles. A colour code ranging from white (low Venus fluorescence) to black (high Venus fluorescence) is used for strains 1-3 and the average thereof. Automated image quantification data: pyr/chl: Venus channel signal in the pyrenoid relative to in the chlorophyll region; mt/cell: Venus channel signal in mitochondria relative to the whole cell. Each point corresponds to a single cell.
The colour code code is the same as that below distributions in Fig. S2, i.e. blue highlights the […]

Substance	Localisation
KYYGNGVHCTKSGCSVNWGEAFSAGVHRLANGGNGFW [LCA, leucocin A, HA-RAMP antimicrobial peptide, reference compound]	cp-set
KYYGNGVSCNKKGCSVDWGKAIGIIGNNAAANLTTGGKAGWKG [EHF, enterocin HF, HA-RAMP antimicrobial peptide, reference compound]	cp-set
SFLTTFKDLAIKAAKSAGQSVLSTLSCKLSNTC [B2I, brevinin-2ISb, HA-RAMP antimicrobial peptide, reference compound]	mt-set
VNYGNGVSCSKTKCSVNWGIITHQAFRVTSGVASG [B15, bacillocin 1580, HA-RAMP antimicrobial peptide, reference compound]	cp-set
ranatuerin-2G [R2GK, reference compound]	mt-set

— PMC10363480 (Plant Communications, 2023)
